Test results from PMC5493624.
Results are given in words; binding and its absence hold for the method and conditions named. In cells and extracts the contact can be indirect. Some entries that bind do so weakly or less than the wild type.

The chains behind the UniProt entries cited, without tags or fusion partners.
UniProt Q9R1E0: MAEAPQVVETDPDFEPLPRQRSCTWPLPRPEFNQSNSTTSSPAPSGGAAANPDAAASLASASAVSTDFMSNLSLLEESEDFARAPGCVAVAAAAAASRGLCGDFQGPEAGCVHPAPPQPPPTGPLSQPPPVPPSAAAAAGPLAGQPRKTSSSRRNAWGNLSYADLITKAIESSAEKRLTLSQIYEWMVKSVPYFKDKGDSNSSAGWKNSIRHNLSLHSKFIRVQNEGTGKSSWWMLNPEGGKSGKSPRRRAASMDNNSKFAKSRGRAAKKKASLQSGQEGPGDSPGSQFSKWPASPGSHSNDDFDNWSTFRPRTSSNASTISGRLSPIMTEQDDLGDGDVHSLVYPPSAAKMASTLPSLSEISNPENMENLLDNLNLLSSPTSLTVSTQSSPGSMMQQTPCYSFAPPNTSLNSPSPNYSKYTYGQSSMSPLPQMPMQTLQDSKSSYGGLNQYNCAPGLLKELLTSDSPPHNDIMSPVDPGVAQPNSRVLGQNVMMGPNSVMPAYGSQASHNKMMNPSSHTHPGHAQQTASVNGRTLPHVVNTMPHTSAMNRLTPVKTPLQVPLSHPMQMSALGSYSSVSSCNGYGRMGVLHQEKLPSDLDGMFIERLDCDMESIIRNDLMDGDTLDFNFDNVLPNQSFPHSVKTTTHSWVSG

B1: X-box-binding protein 1 unspliced (protein, UniProt O35426-1 1-267)
chain: MVVVAAAPSAATAAPKVLLLSGQPASGGRALPLMVPGPRAAGSEASGTPQARKRQRLTHLSPEEKALRRKLKNRVAAQTARDRKKARMSELEQQVVDLEEENHKLQLENQLLREKTHGLVVENQELRTRLGMDTLDPDEVPEVEAKGSGVRLVAGSAESAALRLCAPLQQVQAQLSPPQNIFPWTLTLLPLQILSLISFWAFWTSWTLSCFSNVLPQSLLVWRNSQRSTQKDLVPYQPPFLCQWGPHQPSWKPLMNSFVLTMYTPSL
B2: X-box-binding protein 1 spliced (protein, UniProt O35426-2 1-371)
chain: MVVVAAAPSAATAAPKVLLLSGQPASGGRALPLMVPGPRAAGSEASGTPQARKRQRLTHLSPEEKALRRKLKNRVAAQTARDRKKARMSELEQQVVDLEEENHKLQLENQLLREKTHGLVVENQELRTRLGMDTLDPDEVPEVEAKGSGVRLVAGSAESAAGAGPVVTSPEHLPMDSDTVASSDSESDILLGILDKLDPVMFFKCPSPESASLEELPEVYPEGPSSLPASLSLSVGTSSAKLEAINELIRFDHVYTKPLVLEIPSETESQTNVVVKIEEAPLSSSEEDHPEFIVSVKKEPLEDDFIPELGISNLLSSSHCLRPPSCLLDAHSDCGYEGSPSPFSDMSSPLGTDHSWEDTFANELFPQLISV

Biological target: Forkhead box O1 (mouse (endogenous in HEI-OC1)) (UniProt Q9R1E0)
Experiment: co-IP; HEI-OC1 cells treated with 50 µg/ml tunicamycin for 24 h, lysed in RIPA buffer with protease inhibitor; lysate incubated overnight at 4 °C with first antibody, Dynabeads Protein G 90 min, 3 washes, Western blot; precipitating antibody not named

Binder	binding
B1	binds
B2	binds
